Results: PubChem BioAssay AID328 (DTP/NCI, 2004)
The list is a part of this screen's results and no random one: it is rich in T/C values a quarter to a half above the control, in often repeated tests (any T/C) and in doses without a T/C. Further doses and runs are listed elsewhere. T/C is the treated group as % of the vehicle group. Some entries give survivors of the animals treated and no T/C: the source holds a T/C of zero for them, seemingly a mark for toxic or unscored doses. Some survivor counts are full or nearly so, which does not show that the dose was tolerated: the source hardly ever lists a survival T/C far under the control, and the zero likely stands for such cases as well. Survivors were counted at the toxicity check, usually on the fifth day, unless a day is given; later deaths do not show. Schedules are NCI's codes, taken here to give the interval after Q, in days (D) or hours (H), and the number of doses after X. For survival time, the PubChem record calls one and a half times the control and up active, and a quarter to a half above the control has no call in these data; cut-offs in other NCI protocols can differ. Some entries were tested several times; the results are listed from low to high. Counts like (3×) stand for listed records that agree.

Tested on: BDF1 mice, P388 leukemia ip, median survival T/C
Experiment: NCI In Vivo Anticancer Drug Screen. Data for tumor model P388 Leukemia (intraperitoneal) in B6D2F1 (BDF1) mice
Details: T/C endpoint: median survival time, higher T/C = longer survival; for T/C: vehicle: Klucel (hydroxypropylcellulose) (HPC)
How it was run: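 Transplantable tumour in mice; compound vs vehicle dosing; survival scored; ratio of treated to control reported.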

[1] = dose: 200.0 mg/kg/injection, schedule: Q04DX003 (ip), vehicle: saline with Tween-80

O=C1CN(Cc2ccc(Cl)cc2)CC(=O)N2CCCN12
survivor count (dose: 100.0 mg/kg/injection, schedule: Q01DX005 (ip), vehicle: saline with Tween-80): 5 of 5 | survivor count (dose: 200.0 mg/kg/injection, schedule: Q01DX005 (ip), vehicle: saline with Tween-80): 5 of 5

COc1cc(Br)cc(C(=O)O)c1OC
survivor count (dose: 200.0 mg/kg/injection, schedule: Q01DX009 (ip), vehicle: distilled water + Tween-80): 3 of 6 | survivor count (dose: 400.0 mg/kg/injection, schedule: Q01DX009 (ip), vehicle: distilled water + Tween-80): 3 of 6

C[C@]12CC[C@H]3[C@@H](CCC4=CC(=O)CC[C@@H]43)[C@@H]1CC[C@@H]2OC(=O)CCc1ccccc1
survivor count [1]: 6 of 6

O=C(C=C(C(F)(F)F)C(F)(F)F)c1cccc(C(F)(F)F)c1
survivor count (dose: 50.0 mg/kg/injection, schedule: Q04DX003 (ip), vehicle: saline with Tween-80): 4 of 6

ClCCOC(OCCCl)OCCCl
survivor count (dose: 100.0 mg/kg/injection, schedule: Q01DX009 (ip), vehicle: saline with Tween-80): 5 of 6 | survivor count [1]: 3 of 6 | survivor count (dose: 400.0 mg/kg/injection, schedule: Q04DX003 (ip), vehicle: saline with Tween-80): 0 of 6

COc1cc(C)c(C2NC(=O)c3ccccc3N2)cc1C (centres undefined)
T/C (dose: 100.0 mg/kg/injection, schedule: Q01DX009 (ip)): 140 % of control | T/C (dose: 200.0 mg/kg/injection, schedule: Q01DX009 (ip)): 129 % of control | T/C (dose: 400.0 mg/kg/injection, schedule: Q01DX009 (ip)): 154, 170, 185 % of control (2×)

COc1ccc2[nH]c3c(C)c4cc[n+](C)cc4c(C)c3c2c1
survivor count (dose: 12.5 mg/kg/injection, schedule: Q01DX009 (ip), vehicle: saline with Tween-80): 6 of 6 | survivor count (dose: 25.0 mg/kg/injection, schedule: Q01DX009 (ip), vehicle: saline with Tween-80): 6 of 6
